Measured values taken from patent US8722674B2, “1,3,5-triazine-2,4,6-triamine compound or pharmaceutical acceptable salt thereof, and pharmaceutical composition comprising the same” (Hanall Biopharma Co., Ltd., priority 2007, dated 2014).
Some entries share one result that the patent states for a list of compounds.

Assays:
Assay type in all cases: cell-based
Conditions in all cases: by comparison of used amounts vs control group (metformin 2 mM)
[1] = test system: HepG2 cells; experiment: Measurement of cholesterol synthesis ability (Amplex red fluorescence)
Excerpt: (§1) Metformin that is widely used in type 2 diabetic patients inhibits the formation of glucose, the synthesis of cholesterol and triglyceride in liver cells and promote the absorption of glucose from blood vessels in the muscle cells. […] In the case of the ability to form cholesterol, triglyceride and glucose, the lower the numerical value, the better the effect. Numerical values for a control group become reference values.
(§2) As a hepatic cell model, HepG2 cells were used to measure cholesterol synthesis inhibitory ability, which is the important function of AMPK. The hepatic cell model HepG2 cells were cultured in 1% serum-containing media for 24 hours, and then treated with each of the compounds for 24 hours. Then, the cells were disrupted with lysis buffer (0.1 M potassium phosphate, pH 7.4, 0.05 M NaCl, 5 mM cholic acid, 0.1% Triton X-100). To the disrupted cells, the same volume of a reaction solution (2 U/ml cholesterol oxidizing agent, 2 U/ml peroxidase, 0.2 U/ml cholesterol esterase, and 300 μM Amplex red as a fluorescent factor) was added and allowed to react at 37° C. for 30 minutes. After completion of the reaction, the cells were measured with a fluorometer at a wavelength of 560/590 nm (ex/em), thus quantifying the amount of […] formed in the cells. A lower measurement value means an increased lipid production inhibitory ability.

[2] = test system: HepG2 cells; experiment: Measurement of triglyceride (Amplex red fluorescence)
Protocol: as §1
as §2, with “model,” for “model, HepG2 cells were used to measure cholesterol synthesis inhibitory ability, which is the important function of AMPK. The hepatic cell model”, “(0.1M” for “(0.1 M”, “(0.76” for “(2”, “glycerol kinase, […] peroxidase, 22.2 U/ml glycerol” for “cholesterol”, “agent,” for “agent, 2 U/ml peroxidase, 0.2 U/ml cholesterol esterase,”

[3] = test system: HepG2 cells; experiment: Measurement of gluconeogenesis (14C-lactate)
Protocol: as §1
As a hepatic cell model, HepG2 cells were cultured in 10% serum-containing high glucose media, and then treated with each of the compounds for 24 hours. Then, the cells were treated with 0.5 uCi 14C-lactate and 10 mM L-lactate, and cultured for 4 hours. After cultivation, the media of the cells were removed, and the cells were washed with PBS, treated with 0.1N NaOH and left to stand at room temperature for 1 hour. Then, the cells were neutralized with 1N HCl, and the amount of glucose formed in the cells was measured with a liquid scintillation counter. […] A lower measurement value means a stronger blood glucose lowering activity.

SMILES	effect on cholesterol synthesis, times better than the control group [1]	effect on triglyceride synthesis, times better than the control group [2]	effect on gluconeogenesis, times better than the control group [3]
CN(C)c1nc(N)nc(NCc2ccc3c(c2)OCO3)n1 [Example 1, N2-(benzo[d][1,3]dioxol-5-ylmethyl)-N4,N4-dimethyl-1,3,5-triazine-2,4,6-triamine]	at least 20 times	–	–
CN(C)c1nc(N)nc(NCc2ccco2)n1 [Example 5, N2-(furan-2-ylmethyl)-N4,N4-dimethyl-1,3,5-triazine-2,4,6-triamine]	at least 20 times	–	–
COc1ccc(CNc2nc(N)nc(N(C)C)n2)cc1O [Example 8, 5-((4-amino-6-(dimethylamino)-1,3,5-triazine-2-ylamino)methyl)-2-methoxyphenol]	at least 20 times	–	–
COc1ccc(Nc2nc(N)nc(N(C)C)n2)cc1 [Example 15, N2,N2-dimethyl-N4-(4-methoxyphenyl)-1,3,5-triazine-2,4,6-triamine]	at least 20 times	at least 20 times	–
COc1cc(Nc2nc(N)nc(N(C)C)n2)cc(OC)c1 [Example 16, N2-(3,5-dimethoxyphenyl)-N4,N4-dimethyl-1,3,5-triazine-2,4,6-triamine]	at least 20 times	–	–
CN(C)c1nc(N)nc(Nc2ccc(Cl)c(Cl)c2)n1 [Example 17, N2-(3,4-dichlorophenyl)-N4,N4-dimethyl-1,3,5-triazine-2,4,6-triamine]	at least 20 times	at least 20 times	at least 20 times
CN(C)c1nc(N)nc(Nc2ccc(Br)cc2)n1 [Example 18, N2-(4-bromophenyl)-N4,N4-dimethyl-1,3,5-triazine-2,4,6-triamine]	at least 20 times	at least 20 times	–
COc1ccc(OC)c(Nc2nc(N)nc(N(C)C)n2)c1 [Example 19, N2-(2,5-dimethoxyphenyl)-N4,N4-dimethyl-1,3,5-triazine-2,4,6-triamine]	at least 20 times	–	–
CN(C)c1nc(N)nc(Nc2ccc(Cl)cc2)n1 [Example 20, N2-(4-chlorophenyl)-N4,N4-dimethyl-1,3,5-triazine-2,4,6-triamine]	at least 20 times	at least 20 times	–
CC(Nc1nc(N)nc(N(C)C)n1)c1cccc2ccccc12 (stereo not shown) [Example 21, N2,N2-dimethyl-N4-(1-(naphthalen-1-yl)ethyl)-1,3,5-triazine-2,4,6-triamine]	at least 20 times	at least 20 times	at least 20 times
CN(C)c1nc(N)nc(Nc2ccc(C(C)(C)C)cc2)n1 [Example 22, N2-(4-tert-butylphenyl)-N4,N4-dimethyl-1,3,5-triazine-2,4,6-triamine]	at least 20 times	at least 20 times	–
CN(C)c1nc(N)nc(Nc2ccc3c(c2)CCC3)n1 [Example 23, N2-(2,3-dihydro-1H-inden-5-yl)-N4,N4-dimethyl-1,3,5-triazine-2,4,6-triamine]	at least 20 times	at least 20 times	at least 20 times
CN(C)c1nc(N)nc(Nc2cc(Cl)cc(Cl)c2)n1 [Example 24, N2-(3,5-dichlorophenyl)-N4,N4-dimethyl-1,3,5-triazine-2,4,6-triamine]	at least 20 times	at least 20 times	at least 20 times
CN(C)c1nc(N)nc(Nc2ccc3c(c2)-c2ccccc2C3)n1 [Example 25, N2-(9H-fluoren-3-yl)-N4,N4-dimethyl-1,3,5-triazine-2,4,6-triamine]	–	at least 20 times	at least 20 times
CCCc1ccccc1Nc1nc(N)nc(N(C)C)n1 [Example 26, N2,N2-dimethyl-N4-(2-propylphenyl)-1,3,5-triazine-2,4,6-triamine]	at least 20 times	at least 20 times	at least 20 times
CCCc1ccc(Nc2nc(N)nc(N(C)C)n2)cc1 [Example 27, N2,N2-dimethyl-N4-(4-propylphenyl)-1,3,5-triazine-2,4,6-triamine]	at least 20 times	at least 20 times	at least 20 times
CCCCCCNc1nc(N)nc(N(C)C)n1 [Example 29, N2-hexyl-N4,N4-dimethyl-1,3,5-triazine-2,4,6-triamine]	at least 20 times	at least 20 times	–
CN(C)c1nc(N)nc(Nc2ccccc2F)n1 [Example 30, N2-(2-fluorophenyl)-N4,N4-dimethyl-1,3,5-triazine-2,4,6-triamine]	at least 20 times	–	–
CN(C)c1nc(N)nc(Nc2ccc(F)cc2)n1 [Example 31, N2-(4-fluorophenyl)-N4,N4-dimethyl-1,3,5-triazine-2,4,6-triamine]	at least 20 times	at least 20 times	–
Cc1cccc(Nc2nc(N)nc(N(C)C)n2)c1 [Example 32, N2,N2-dimethyl-N4-m-tolyl-1,3,5-triazine-2,4,6-triamine]	at least 20 times	at least 20 times	–
Cc1ccccc1Nc1nc(N)nc(N(C)C)n1 [Example 33, N2,N2-dimethyl-N4-o-tolyl-1,3,5-triazine-2,4,6-triamine]	at least 20 times	–	–
CN(C)c1nc(N)nc(N2CCCC2)n1 [Example 35, N2,N2-dimethyl-6-(pyrrolidin-1-yl)-1,3,5-triazine-2,4-diamine]	at least 20 times	–	–
CCc1ccccc1Nc1nc(N)nc(N(C)C)n1 [Example 36, N2-(2-ethylphenyl)-N4,N4-dimethyl-1,3,5-triazine-2,4,6-triamine]	at least 20 times	–	at least 20 times
CN(C)c1nc(N)nc(Nc2ccc(-c3ccccc3)cc2)n1 [Example 37, N2-(biphenyl-4-yl)-N4,N4-dimethyl-1,3,5-triazine-2,4,6-triamine]	at least 20 times	–	–
CN(C)c1nc(N)nc(N2CCN(c3ccccc3)CC2)n1 [Example 39, N2,N2-dimethyl-6-(4-phenylpiperazin-1-yl)-1,3,5-triazine-2,4-diamine]	at least 20 times	–	–
CN(C)c1nc(N)nc(N2CCN(c3ccc([N+](=O)[O-])cc3)CC2)n1 [Example 40, N2,N2-dimethyl-6-(4-(4-nitrophenyl)piperazin-1-yl)-1,3,5-triazine-2,4-diamine]	at least 20 times	–	at least 20 times
CN(C)c1nc(N)nc(NC2CCCCC2)n1 [Example 41, N2-cyclohexyl-N4,N4-dimethyl-1,3,5-triazine-2,4,6-triamine]	at least 20 times	–	–
CCCCCCc1ccc(Nc2nc(N)nc(N(C)C)n2)cc1 [Example 42, N2-(4-hexylphenyl)-N4,N4-dimethyl-1,3,5-triazine-2,4,6-triamine]	at least 20 times	at least 20 times	–
CN(C)c1nc(N)nc(Nc2ccccc2O)n1 [Example 43, 2-(4-amino-6-(dimethylamino)-1,3,5-triazine-2-ylamino)phenol]	at least 20 times	–	–
